Source: doi:10.64898/2025.12.18.692915
No constants are given. Whether binding was seen depends on the method and setting. Binding seen in cells or lysates may run through a third protein. Sequences can lack the tags named with a protein.

T1: Kv6.4-HA wild-type (human) (UniProt Q8TDN1)
T1 sequence: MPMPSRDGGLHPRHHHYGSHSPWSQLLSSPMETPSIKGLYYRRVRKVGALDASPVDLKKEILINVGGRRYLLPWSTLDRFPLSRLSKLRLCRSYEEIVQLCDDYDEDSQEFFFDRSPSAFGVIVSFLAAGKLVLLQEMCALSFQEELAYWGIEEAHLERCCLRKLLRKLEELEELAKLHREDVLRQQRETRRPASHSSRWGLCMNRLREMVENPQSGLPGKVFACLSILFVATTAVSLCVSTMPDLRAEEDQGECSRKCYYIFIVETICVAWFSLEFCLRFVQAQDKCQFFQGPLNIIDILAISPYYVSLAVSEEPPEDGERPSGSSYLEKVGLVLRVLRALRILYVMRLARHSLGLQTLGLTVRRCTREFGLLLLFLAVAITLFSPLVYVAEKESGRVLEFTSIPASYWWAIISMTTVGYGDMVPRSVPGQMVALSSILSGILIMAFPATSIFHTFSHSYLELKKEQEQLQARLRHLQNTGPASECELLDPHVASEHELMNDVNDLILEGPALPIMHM

T2: Kv6.1-HA wild-type (human) (UniProt Q9UIX4)
T2 sequence: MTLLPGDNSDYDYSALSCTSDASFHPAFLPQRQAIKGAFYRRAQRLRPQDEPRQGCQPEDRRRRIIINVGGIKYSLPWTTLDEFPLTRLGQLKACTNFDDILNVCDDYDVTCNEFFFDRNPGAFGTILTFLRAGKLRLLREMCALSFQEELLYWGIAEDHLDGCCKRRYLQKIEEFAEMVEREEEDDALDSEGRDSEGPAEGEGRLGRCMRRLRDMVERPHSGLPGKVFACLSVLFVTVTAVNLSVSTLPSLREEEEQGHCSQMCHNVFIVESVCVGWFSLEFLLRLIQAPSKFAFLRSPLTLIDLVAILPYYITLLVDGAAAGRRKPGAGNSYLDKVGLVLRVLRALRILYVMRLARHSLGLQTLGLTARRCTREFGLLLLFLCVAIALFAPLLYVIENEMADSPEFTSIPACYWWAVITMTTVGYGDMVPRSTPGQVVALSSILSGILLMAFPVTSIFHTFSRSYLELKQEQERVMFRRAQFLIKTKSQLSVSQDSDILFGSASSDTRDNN

B1: Kv6.1-Flag wild-type (protein, UniProt Q9UIX4 1-513)
chain: T2 sequence
B2: Kv6.2-Flag wild-type (protein, UniProt Q9UJ96 1-466)
chain: MEPWPCSPGGGGGTRARHVIINVGGCRVRLAWAALARCPLARLERLRACRGHDDLLRVCDDYDVSRDEFFFDRSPCAFRAIVALLRAGKLRLLRGPCALAFRDELAYWGIDEARLERCCLRRLRRREEEAAEARAGPTERGAQGSPARALGPRGRLQRGRRRLRDVVDNPHSGLAGKLFACVSVSFVAVTAVGLCLSTMPDIRAEEERGECSPKCRSLFVLETVCVAWFSFEFLLRSLQAESKCAFLRAPLNIIDILALLPFYVSLLLGLAAGPGGTKLLERAGLVLRLLRALRVLYVMRLARHSLGLRSLGLTMRRCAREFGLLLLFLCVAMALFAPLVHLAERELGARRDFSSVPASYWWAVISMTTVGYGDMVPRSLPGQVVALSSILSGILLMAFPVTSIFHTFSRSYSELKEQQQRAASPEPALQEDSTHSATATEDSSQGPDSAGLADDSADALWVRAGR
B3: Kv6.3-Flag wild-type (protein, UniProt Q8TAE7 1-436)
chain: MTFGRSGAASVVLNVGGARYSLSRELLKDFPLRRVSRLHGCRSERDVLEVCDDYDRERNEYFFDRHSEAFGFILLYVRGHGKLRFAPRMCELSFYNEMIYWGLEGAHLEYCCQRRLDDRMSDTYTFYSADEPGVLGRDEARPGGAEAAPSRRWLERMRRTFEEPTSSLAAQILASVSVVFVIVSMVVLCASTLPDWRNAAADNRSLDDRSRYSAGPGREPSGIIEAICIGWFTAECIVRFIVSKNKCEFVKRPLNIIDLLAITPYYISVLMTVFTGENSQLQRAGVTLRVLRMMRIFWVIKLARHFIGLQTLGLTLKRCYREMVMLLVFICVAMAIFSALSQLLEHGLDLETSNKDFTSIPAACWWVIISMTTVGYGDMYPITVPGRILGGVCVVSGIVLLALPITFIYHSFVQCYHELKFRSARYSRSLSTEFLN

What was measured:
[1] = target: T1, Kv6.4-HA wild-type (human); test: co-IP
[2] = target: T2, Kv6.1-HA wild-type (human); test: co-IP

Row | Binder | binding [1] | binding [2]
1 | B1 | no binding | –
2 | B2 | no binding | –
3 | B3 | no binding | no binding
